“And” between values parts separate entries of the source, which are not always exact repeats. Equal entries are not always repeated. Screen size: about 360,000 compounds; about 10,000 (2.8%) were called active. This list was built around the results that the source calls inconclusive (neither active nor inactive); the mix of calls is not that of the screen. Calls follow the shape of the dose curve; as a rule, active = well fitted inhibition curve with a large enough effect; inconclusive = small, poorly fitted or top-dose-only effect; inactive = flat fitted curve, though single readings scatter. Where the call is inconclusive, the potency comes from a doubtful curve fit.
target: Serine/threonine-protein kinase PLK1 (Homo sapiens) (UniProt P53350); assay: qHTS for Inhibitors of PLK1-PDB (polo-like kinase 1 - polo-box domain): Primary Screen; conditions: Plk1 PBD binding of FITC phosphopeptide, fluorescence polarization; also: nearly all actives have a fitted effect of over 65% in size; as to max response, negative = inhibition: series mostly up to about 57 µM
% is scaled to controls: 0 for no effect and ±100 for the full control effect; potency is read from the fitted curve at half-maximal effect.

Protein sequences, listed by entry. Tags and fused reporters are not part of them.
UniProt P53350, whole entry, looked up: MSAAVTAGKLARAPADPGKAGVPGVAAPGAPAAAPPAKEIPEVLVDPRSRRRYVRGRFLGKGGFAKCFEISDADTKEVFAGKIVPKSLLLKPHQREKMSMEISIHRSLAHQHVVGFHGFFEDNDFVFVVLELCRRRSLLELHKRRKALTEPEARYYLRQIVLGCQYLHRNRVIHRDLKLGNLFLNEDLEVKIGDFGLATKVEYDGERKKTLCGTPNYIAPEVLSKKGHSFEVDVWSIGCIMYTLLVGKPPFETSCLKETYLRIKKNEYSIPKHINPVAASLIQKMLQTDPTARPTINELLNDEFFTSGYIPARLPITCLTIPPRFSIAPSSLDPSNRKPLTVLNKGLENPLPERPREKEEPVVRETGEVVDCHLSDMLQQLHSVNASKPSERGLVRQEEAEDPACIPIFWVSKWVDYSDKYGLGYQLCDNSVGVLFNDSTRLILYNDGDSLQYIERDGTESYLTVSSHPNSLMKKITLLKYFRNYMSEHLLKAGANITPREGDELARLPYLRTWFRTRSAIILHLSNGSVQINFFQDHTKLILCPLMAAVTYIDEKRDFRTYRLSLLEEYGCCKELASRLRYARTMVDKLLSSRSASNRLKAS

Compound	Potency	max response, negative = inhibition
Cc1c(Cl)cccc1NC(=S)Nc1ccc2[nH]c(=O)[nH]c2c1	inconclusive: 37.7 µM [inhibitor, single point]	–
CCOC(=O)c1c(C)[nH]c(C2=NNC(=NC3CC3)SC2)c1C	active: 29.9 µM	–
CC(=O)Nc1ccc(SC[C@H](Cc2ccccc2)N2CC[C@@H](O)CCC2=O)cc1	inconclusive: 33.6 µM [inhibitor, partial curve]	–
Cc1ccc(-c2cc(C(=O)NCc3ccco3)c3ccccc3n2)o1	inconclusive: 26.7 µM [inhibitor, partial curve]	–
N#CCC(=O)Nc1ccc(C(=O)OCC(=O)c2ccc3c(c2)OCCO3)cc1	active: 11.9 µM	–
Cc1ccc(-c2cc(-c3ccccc3)no2)cc1	–	inactive: -0.646%
O=C(NC(=S)Nn1cnnc1)c1ccccc1Cl	inconclusive: 23.8 µM [inhibitor, single point]	–
COc1ccc(NC2=NCC(=O)N2c2ccccc2F)cc1	–	inconclusive: -33% [inhibitor]
O=C(O)C1Oc2cc3ccccc3cc2O1	inconclusive: 13.4 µM [inhibitor, partial curve]	–
Cc1cccc(-n2c(O)c(C=Nc3cc(O)ccc3C)c3ccccc3c2=O)n1	inconclusive: 21.2 µM [inhibitor, partial curve]	–
CC(C)OC(=O)CSc1nnc(CNc2nc(-c3ccccc3)cs2)n1C	inconclusive: 26.7 µM [inhibitor, partial curve]	–
Cc1c(C(=O)NC(=S)N(Cc2ccccc2)c2ccccn2)cccc1[N+](=O)[O-]	inconclusive: 21.2 µM [inhibitor, partial curve]	–
CSc1ccc(/C=C/C(=O)N2CCCN(C)CC2)cc1	inconclusive: 33.6 µM [inhibitor, single point]	–
O=C(O)c1cccc(S(=O)(=O)Nc2ccc(O)c(Sc3nc4ccccc4s3)c2)c1	active: 21.2 µM	–
N#Cc1c(-c2ccco2)c2c([nH]c1=S)CCCC2	active: 11.9 µM	–
Cn1ccc(C(=O)Nc2sc3c(c2C(N)=O)CCCCC3)n1	inconclusive: 23.8 µM [inhibitor, single point]	–
O=C(CC12CC3CC(CC(C3)C1)C2)NCc1ccc(F)cc1	active: 29.9 µM	–
O=[N+]([O-])c1ccc2[nH]c(=S)[nH]c2c1	active: 26.7 µM	–
CC(=O)N1N=C(N)SC1c1ccc(Cl)c(Cl)c1 (configuration not stated)	–	inactive: -5.78%
CC(=O)Oc1ccc(Cn2cnc3cc4ccccc4cc32)cc1	–	inactive: -1.16%
CC1COc2ccccc2N1S(=O)(=O)c1cc(Cl)ccc1Cl (configuration not stated)	inconclusive: 29.9 µM [inhibitor, single point]	–
O=C(CSc1nnc(-c2ccc(F)cc2)o1)Nc1ccc(S(=O)(=O)N2CCCC2)cc1	–	inactive: 0.444%
O=C(NCc1ccc(F)cc1)C1CCC(CNS(=O)(=O)c2ccccc2)CC1 (configuration not stated)	active: 26.7 µM	–
CCOc1ccc(NC(=O)COc2ccc(S(=O)(=O)N3CCOCC3)cc2)cc1	–	inactive: 1.8%

Looked up above.
CC(C)OC(=O)CSc1nnc(CNc2nc(-c3ccccc3)cs2)n1C – Potency: inconclusive: 26.7 µM [inhibitor, partial curve]
CCOc1ccc(NC(=O)COc2ccc(S(=O)(=O)N3CCOCC3)cc2)cc1 – max response, negative = inhibition: inactive: 1.8%
O=C(O)C1Oc2cc3ccccc3cc2O1 – Potency: inconclusive: 13.4 µM [inhibitor, partial curve]
O=[N+]([O-])c1ccc2[nH]c(=S)[nH]c2c1 – Potency: active: 26.7 µM

Remaining list, next part.

Compound	Potency	max response, negative = inhibition
CCCC(=O)NC(c1ccco1)c1cc([N+](=O)[O-])c2cccnc2c1O (configuration not stated)	inconclusive: 21.2 µM [inhibitor, partial curve]	–
CCOC(=O)C1=C(C)c2ccccc2N(C(=O)OC)C1(C)C(=O)OCC (configuration not stated)	inconclusive: 26.7 µM [inhibitor, single point]	–
COc1cccc2nc3cc(C)c(C)cc3nc12	active: 16.8 µM	–
Cc1[nH]c(=O)[nH]c(=O)c1NC(=O)c1ccccc1[N+](=O)[O-]	–	inactive: 2.17%
COC(=O)CN1C(c2cccc(Cl)c2)=Nc2ccc(Cl)cc2C1c1ccccc1 (configuration not stated)	–	inactive: -1.8%
COc1cc2c(cc1NC(=O)C(C)Sc1cccc[n+]1[O-])oc1ccccc12 (configuration not stated)	inconclusive: 18.9 µM [inhibitor, partial curve]	–
CCOc1cnc(-c2c(-c3ccccc3Cl)noc2C)o1	inconclusive: 23.8 µM [inhibitor, single point]	–
Cc1cc(C)c2nc(-c3ccccn3)cc(C(=O)NCCc3ccc(S(N)(=O)=O)cc3)c2c1	active: 29.9 µM	–
c1ccc(SC23CCCCN(CCC2)[C@]32CO2)cc1 (some centres not stated)	inconclusive: 26.7 µM [inhibitor, partial curve]	–
CC1CCc2c(sc(NC(=O)c3ccc(Cn4cc([N+](=O)[O-])cn4)o3)c2C#N)C1 (configuration not stated)	inconclusive: 23.8 µM [inhibitor, partial curve]	–
COC(=O)c1sc(NC(=O)c2ccc3c(c2)OCO3)c(C#N)c1C	–	inactive: -7.7%
CCN1CCC(Nc2ccnc3cc(Cl)ccc23)CC1	–	inactive: -0.809%
Cc1ccc(C)c(S(=O)(=O)N2C(=S)NC(=O)C2C(C)C)c1 (configuration not stated)	inconclusive: 23.8 µM [inhibitor, partial curve]	–
N#Cc1c(Nc2ccccc2Cl)s[nH]c1=O	inconclusive: 16.8 µM [inhibitor, partial curve]	–
Cc1ncc(C[n+]2csc(CCO)c2C)c(N)n1	–	inactive: 4.19% and inactive: -10.5%
O=S(=O)(c1ccc(-c2n[nH]c(=S)o2)cc1)N1CCCCC1	inconclusive: 29.9 µM [inhibitor, partial curve]	–
CCCc1ccc(C2=Nn3c(nnc3C(C)C)SC2)cc1	active: 10.6 µM	–
O=C(NCc1cccnc1)c1cc2ccccc2oc1=O	inconclusive: 26.7 µM [inhibitor, single point]	–
COc1cccc(C(=O)OCc2cc(=O)oc3c(C)c(C)ccc23)c1OC	inconclusive: 29.9 µM [inhibitor, single point]	–
C#CCOCCOCCOCCNc1nc(N2CCOCC2)nc(N2CCN(C(=O)[C@H](Cc3cc4ccccc4[nH]3)n3cc([C@@H](N)Cc4ccc(O)cc4)nn3)CC2)n1	active: 26.7 µM	–
CN(C)c1ccc(/C=N/NC(=O)c2nonc2N)cc1[N+](=O)[O-]	active: 26.7 µM	–
CC1(C(=O)NS(=O)(=O)Cc2cccc(Cl)c2)CCN1C(=O)c1cccc(F)c1 (configuration not stated)	–	inactive: -1.32%
Clc1ccc(-n2nnc(-c3ncc[nH]3)n2)cc1Cl	inconclusive: 21.2 µM [inhibitor, partial curve]	–

Source: PubChem BioAssay AID720504 (National Center for Advancing Translational Sciences (NCATS), 2013)
